Laboratory results taken from paper PMC9984184.
These are yes or no findings as the source states them, for the method shown. Binding seen in cells or lysates may run through a third protein. Some results given as binding are weak or reduced against the parent protein; the word gives no strength. One block for each binder: values may come before it.

By UniProt entry, the sequences of proteins in these tests, tags left out.
UniProt P18848: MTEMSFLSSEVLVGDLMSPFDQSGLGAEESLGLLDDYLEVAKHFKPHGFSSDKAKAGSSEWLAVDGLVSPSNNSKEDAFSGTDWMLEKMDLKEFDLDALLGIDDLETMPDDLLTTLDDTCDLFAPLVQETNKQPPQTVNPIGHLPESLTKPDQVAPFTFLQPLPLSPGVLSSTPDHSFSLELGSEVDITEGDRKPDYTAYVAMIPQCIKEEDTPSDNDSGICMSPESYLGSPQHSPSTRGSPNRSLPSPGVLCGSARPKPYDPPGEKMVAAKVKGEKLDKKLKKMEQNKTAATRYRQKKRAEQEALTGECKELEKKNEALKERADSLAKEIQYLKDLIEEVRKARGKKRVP

What was measured:
[1] = target: T1, endogenous CREB3L2 of rat neurons (rat (endogenous in cortical and hippocampal neurons)) (UniProt Q6QDP7); assay: proximity ligation; endogenous proteins in fixed rat hippocampal neurons (microfluidic chambers or dissociated cultures); anti-CREB3L2 and anti-ATF4 primary antibodies, Duolink In situ Red; Aβ42 or vehicle for 12 or 18 hours; also ciliobrevin A, emetine, α-synuclein fibrils
T1 sequence: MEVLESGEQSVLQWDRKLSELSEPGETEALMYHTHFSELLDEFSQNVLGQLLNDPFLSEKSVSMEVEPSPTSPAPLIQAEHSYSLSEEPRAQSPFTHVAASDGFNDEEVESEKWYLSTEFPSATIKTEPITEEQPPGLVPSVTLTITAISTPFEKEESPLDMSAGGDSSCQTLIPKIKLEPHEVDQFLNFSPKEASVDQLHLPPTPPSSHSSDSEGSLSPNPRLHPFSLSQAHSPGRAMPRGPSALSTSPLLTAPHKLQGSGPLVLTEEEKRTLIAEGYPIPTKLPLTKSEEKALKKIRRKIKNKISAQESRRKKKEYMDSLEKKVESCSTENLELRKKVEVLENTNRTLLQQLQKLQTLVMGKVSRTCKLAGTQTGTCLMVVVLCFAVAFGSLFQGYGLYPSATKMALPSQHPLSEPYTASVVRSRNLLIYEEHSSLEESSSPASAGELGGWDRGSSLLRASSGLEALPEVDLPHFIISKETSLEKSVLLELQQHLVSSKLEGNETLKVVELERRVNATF

[2] = target: T1, endogenous CREB3L2 of rat neurons (rat (endogenous in cortical and hippocampal neurons)); assay: co-IP; endogenous proteins in neuritic (axon-dendritic) extracts of mixed cortical and hippocampal neurons grown on transwell inserts, treated with Aβ42 or vehicle; ATF4 blotted in the CREB3L2 precipitate
[3] = target: T2, endogenous ATF4 of mouse brain (mouse (endogenous in brain)) (UniProt Q06507); assay: proximity ligation; endogenous proteins in 12-μm coronal brain sections (dentate gyrus) of 10-week-old 5xFAD and wild-type mice; anti-CREB3L2 and anti-ATF4 directly conjugated with PLA PLUS and MINUS oligonucleotides, Duolink In situ Far-red
T2 sequence: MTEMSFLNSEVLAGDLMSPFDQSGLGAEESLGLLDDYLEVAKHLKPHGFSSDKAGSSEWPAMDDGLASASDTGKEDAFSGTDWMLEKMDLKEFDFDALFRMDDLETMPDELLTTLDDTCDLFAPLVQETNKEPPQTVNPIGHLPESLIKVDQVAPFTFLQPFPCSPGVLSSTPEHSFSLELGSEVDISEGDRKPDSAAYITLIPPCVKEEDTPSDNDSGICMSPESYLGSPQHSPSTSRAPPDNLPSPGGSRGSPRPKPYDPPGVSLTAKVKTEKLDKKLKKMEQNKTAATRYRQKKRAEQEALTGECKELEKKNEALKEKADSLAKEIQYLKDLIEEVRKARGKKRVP

[4] = target: endogenous ATF4 of human brain (human (endogenous in dorsolateral prefrontal cortex)) (UniProt P18848); assay: co-IP; endogenous proteins in lysates of frozen human dorsolateral prefrontal cortex (controls and late-onset AD); anti-ATF4 cross-linked to protein A magnetic beads, overnight at 4°C; 20 mM tris-Cl pH 8, 137 mM NaCl, 1% NP-40, 2 mM EDTA; CREB3L2 blotted in the eluate
[5] = target: endogenous ATF4 of human brain (human (endogenous in dorsolateral prefrontal cortex)) (UniProt P18848); assay: proximity ligation; endogenous proteins in paraffin sections of human dorsolateral prefrontal cortex (AD and controls); directly conjugated anti-CREB3L2 and anti-ATF4 probes, Duolink In Situ Brightfield; neurofilament costain

binding [1]: binds
binding [2]: binds
B1: endogenous ATF4 of rat neurons (protein, UniProt Q9ES19 1-347)
chain: MTEMSFLNSEVLAGDLMSPFDQSGLGAEESLGLLDDYLEVAKHFKPHGFSSDKAGSSEWLAMDGLVSASDTGKEDAFSGTDWMLEKMDLKEFDFDALFRMDDLETMPDELLATLDDTCDLFAPLVQETNKEPPQTVNPIGHLPESVIKVDQAAPFTFLQPLPCSPGFLSSTPDHSFSLELGSEVDISEGDRKPDSAAYITLTPQCVKEEDTPSDSDSGICMSPESYLGSPQHSPSTSRAPPDSLPSPGVPRGSRPKPYDPPGVSVTAKVKTEKLDKKLKKMEQNKTAATRYRQKKRAEQEALTGECKELEKKNEALKEKADSLAKEIQYLKDLIEEVRKARGKKRVP

binding [3]: binds
B2: endogenous CREB3L2 of mouse brain (protein, UniProt Q8BH52 1-521)
chain: MEVLESGEQSVLQWDRKLSELSEPGETEALMYHTHFSELLDEFSQNVLGQLLSDPFLSEKSESMEVEPSPTSPAPLIQAEHSYSLSEEPRTQSPFTHAATSDSFNDEEVESEKWYLSTEFPSATIKTEPITEEQPPGLVPSVTLTITAISTPFEKEESPLDMNAGGDSSCQTLIPKIKLEPHEVDQFLNFSPKEASVDQLHLPPTPPSSHSSDSEGSLSPNPRLHPFSLSQAHSPARAMPRGPSALSTSPLLTAPHKLQGSGPLVLTEEEKRTLVAEGYPIPTKLPLTKSEEKALKKIRRKIKNKISAQESRRKKKEYMDSLEKKVESCSTENLELRKKVEVLENTNRTLLQQLQKLQTLVMGKVSRTCKLAGTQTGTCLMVVVLCFAVAFGSFFQGYGPYPSATKMALPSQHPLSEPYTASVVRSRNLLIYEEHAPLEESSSPASAGELGGWDRGSSLLRASSGLEALPEVDLPHFLISNETSLEKSVLLELQQHLVSSKLEGNETLKVVELERRVNATF

binding [4]: binds
binding [5]: binds
B3: endogenous CREB3L2 of human brain (protein, UniProt Q70SY1 1-520)
chain: MEVLESGEQGVLQWDRKLSELSEPGDGEALMYHTHFSELLDEFSQNVLGQLLNDPFLSEKSVSMEVEPSPTSPAPLIQAEHSYSLCEEPRAQSPFTHITTSDSFNDDEVESEKWYLSTDFPSTSIKTEPVTDEPPPGLVPSVTLTITAISTPLEKEEPPLEMNTGVDSSCQTIIPKIKLEPHEVDQFLNFSPKEAPVDHLHLPPTPPSSHGSDSEGSLSPNPRLHPFSLPQTHSPSRAAPRAPSALSSSPLLTAPHKLQGSGPLVLTEEEKRTLIAEGYPIPTKLPLSKSEEKALKKIRRKIKNKISAQESRRKKKEYMDSLEKKVESCSTENLELRKKVEVLENTNRTLLQQLQKLQTLVMGKVSRTCKLAGTQTGTCLMVVVLCFAVAFGSFFQGYGPYPSATKMALPSQHSLQEPYTASVVRSRNLLIYEEHSPPEESSSPGSAGELGGWDRGSSLLRVSGLESRPDVDLPHFIISNETSLEKSVLLELQQHLVSAKLEGNETLKVVELDRRVNTTF
